This is one part of the list. Values are raw readings; no control value is given beside them.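 Primary screen: polymyxin B was added at a level permeabilizing Salmonella outer membranes while sparing inner membranes. DMSO wells, both with and without polymyxin B, established maximum growth. Plate-to-plate variation meant each plate was ranked on its own, and the lowest-OD600 compounds were selected as hits.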
Test system: Salmonella enterica serovar Typhimurium SL1344
Test: bacterial growth OD600 after 18 h with compound and polymyxin B; higher = more bacterial growth (less inhibition)
Conditions: 50 µM, Mueller-Hinton broth

Row | SMILES | bacterial growth OD600 (polymyxin B 1 µg/mL) | bacterial growth OD600 (polymyxin B 0.75 µg/mL)
1 | O=C(CCC1CCN(C(=O)c2ccc(F)cc2Cl)CC1)NCc1cccnc1 | 0.961 | 
2 | COCCN1CCC(CN(C)c2nc3nonc3nc2NC2CCCC2)CC1 | 0.903 | 
3 | C=CCC(O)(CC=C)CNC(=O)C1CC(Cc2ccccc2Cl)=NO1 (centres undefined) |  | 0.793
4 | COc1ccc(C(=O)N2CCOC(CCCC(C)C)C2)o1 (centres undefined) | 0.868 | 
5 | CC(Cc1cccnc1)N1CCN(c2nc(-c3ccccc3)nc3c2CCC3)CC1 (centres undefined) | 0.029 | 
6 | CC(C)(C)NC(=O)C1CCCN(C2CCN(c3nc4ccccc4o3)CC2)C1 (centres undefined) |  | 0.75
7 | O=C(c1cc(COc2cccc(C(F)(F)F)c2)on1)N1CCCC(CCCO)C1 (centres undefined) | 0.818 | 
8 | O=C(c1c(F)cccc1F)N1CCCC(N2CCN(c3ccc(F)cc3)CC2)C1 (centres undefined) | 0.886 | 
9 | CCC(=O)NC1CCCc2nc(N(C)C)ncc21 (centres undefined) | 0.771 | 

Reference: the supplement of paper PMC12889115
